According to article PMC4823379:
Results are given in words; binding and its absence hold for the method and conditions named. In cells and extracts the contact can be indirect. Some entries that bind do so weakly or less than the wild type. For some of these results: Sequences can lack the tags named with a protein.

Chains of the proteins cited; added tags and fusions are not shown. Lines headed by an entry give the natural chain unless they say otherwise; changes in a name come on top.
UniProt Q9EPN1: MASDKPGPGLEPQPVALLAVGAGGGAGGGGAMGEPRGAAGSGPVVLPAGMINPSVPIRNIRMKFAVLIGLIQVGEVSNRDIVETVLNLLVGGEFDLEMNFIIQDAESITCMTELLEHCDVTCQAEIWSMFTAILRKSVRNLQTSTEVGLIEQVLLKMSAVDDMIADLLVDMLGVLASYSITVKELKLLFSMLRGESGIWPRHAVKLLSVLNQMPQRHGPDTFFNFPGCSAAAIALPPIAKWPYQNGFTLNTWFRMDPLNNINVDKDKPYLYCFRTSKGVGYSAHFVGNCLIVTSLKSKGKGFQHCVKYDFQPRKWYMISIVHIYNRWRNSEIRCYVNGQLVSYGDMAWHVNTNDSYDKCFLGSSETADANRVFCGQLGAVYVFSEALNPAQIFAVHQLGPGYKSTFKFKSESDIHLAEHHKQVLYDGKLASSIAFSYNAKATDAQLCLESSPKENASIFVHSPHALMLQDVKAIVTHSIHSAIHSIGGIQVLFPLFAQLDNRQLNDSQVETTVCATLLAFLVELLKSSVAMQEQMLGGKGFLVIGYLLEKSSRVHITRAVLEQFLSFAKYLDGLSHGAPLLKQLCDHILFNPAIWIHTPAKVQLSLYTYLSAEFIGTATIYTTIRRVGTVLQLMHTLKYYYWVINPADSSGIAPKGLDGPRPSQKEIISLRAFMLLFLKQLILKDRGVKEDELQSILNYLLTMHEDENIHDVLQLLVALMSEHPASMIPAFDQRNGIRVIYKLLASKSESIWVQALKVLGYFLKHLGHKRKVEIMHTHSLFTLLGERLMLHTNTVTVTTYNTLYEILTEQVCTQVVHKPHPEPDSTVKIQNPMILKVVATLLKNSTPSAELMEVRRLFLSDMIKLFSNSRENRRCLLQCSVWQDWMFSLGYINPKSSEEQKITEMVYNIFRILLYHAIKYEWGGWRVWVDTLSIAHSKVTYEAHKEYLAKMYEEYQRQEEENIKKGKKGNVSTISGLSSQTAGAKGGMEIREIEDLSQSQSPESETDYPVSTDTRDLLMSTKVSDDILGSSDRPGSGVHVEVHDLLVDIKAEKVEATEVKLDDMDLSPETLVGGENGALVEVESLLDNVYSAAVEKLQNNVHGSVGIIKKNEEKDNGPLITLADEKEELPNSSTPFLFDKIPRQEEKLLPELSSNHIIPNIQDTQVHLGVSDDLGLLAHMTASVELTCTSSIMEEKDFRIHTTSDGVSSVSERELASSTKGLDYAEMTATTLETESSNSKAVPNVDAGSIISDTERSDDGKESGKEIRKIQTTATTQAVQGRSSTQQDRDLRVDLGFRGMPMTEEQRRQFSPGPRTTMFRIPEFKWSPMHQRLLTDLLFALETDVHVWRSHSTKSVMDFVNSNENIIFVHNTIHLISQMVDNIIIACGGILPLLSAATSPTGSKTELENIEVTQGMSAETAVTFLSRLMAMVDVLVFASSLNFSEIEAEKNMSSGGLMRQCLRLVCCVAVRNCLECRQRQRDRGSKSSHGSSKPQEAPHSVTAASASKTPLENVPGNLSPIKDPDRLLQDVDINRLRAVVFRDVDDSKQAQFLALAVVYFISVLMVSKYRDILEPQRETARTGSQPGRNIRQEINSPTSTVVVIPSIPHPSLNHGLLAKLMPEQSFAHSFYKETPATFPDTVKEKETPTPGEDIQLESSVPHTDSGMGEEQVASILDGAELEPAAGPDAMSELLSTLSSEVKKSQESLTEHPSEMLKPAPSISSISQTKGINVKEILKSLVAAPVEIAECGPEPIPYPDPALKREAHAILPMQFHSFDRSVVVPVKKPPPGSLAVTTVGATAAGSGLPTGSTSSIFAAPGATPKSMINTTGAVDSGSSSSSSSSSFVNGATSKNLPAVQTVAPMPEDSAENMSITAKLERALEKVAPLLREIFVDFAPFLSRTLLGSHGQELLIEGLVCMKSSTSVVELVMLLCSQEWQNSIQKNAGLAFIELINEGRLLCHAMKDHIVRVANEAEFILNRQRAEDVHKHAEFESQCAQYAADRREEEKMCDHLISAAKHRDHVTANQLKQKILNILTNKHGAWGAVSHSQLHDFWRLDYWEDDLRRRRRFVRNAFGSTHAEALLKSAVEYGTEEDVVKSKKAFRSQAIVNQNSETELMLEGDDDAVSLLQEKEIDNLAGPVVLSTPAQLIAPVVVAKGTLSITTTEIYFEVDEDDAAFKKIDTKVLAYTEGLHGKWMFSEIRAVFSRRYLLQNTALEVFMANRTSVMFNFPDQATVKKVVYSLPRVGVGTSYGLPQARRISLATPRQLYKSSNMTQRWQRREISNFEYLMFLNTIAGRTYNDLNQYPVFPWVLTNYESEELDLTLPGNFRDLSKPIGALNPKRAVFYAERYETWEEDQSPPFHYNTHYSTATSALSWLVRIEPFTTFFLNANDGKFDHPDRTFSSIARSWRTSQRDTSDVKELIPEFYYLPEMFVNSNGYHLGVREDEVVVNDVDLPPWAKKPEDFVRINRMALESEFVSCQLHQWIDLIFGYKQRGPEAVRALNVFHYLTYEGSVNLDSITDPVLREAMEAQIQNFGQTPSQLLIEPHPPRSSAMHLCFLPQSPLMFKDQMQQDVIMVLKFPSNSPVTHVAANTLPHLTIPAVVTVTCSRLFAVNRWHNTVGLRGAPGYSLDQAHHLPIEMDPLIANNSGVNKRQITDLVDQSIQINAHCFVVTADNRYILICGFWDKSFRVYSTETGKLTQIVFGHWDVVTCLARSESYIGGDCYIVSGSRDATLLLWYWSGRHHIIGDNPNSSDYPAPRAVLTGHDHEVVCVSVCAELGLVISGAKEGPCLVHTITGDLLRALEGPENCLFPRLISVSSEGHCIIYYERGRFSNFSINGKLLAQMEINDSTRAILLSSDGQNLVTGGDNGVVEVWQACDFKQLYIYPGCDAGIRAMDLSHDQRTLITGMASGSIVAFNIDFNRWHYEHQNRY

What was measured:
[1] = molecular target: T1, Phospho-fructo kinase muscle (PFKM) (human) (UniProt P08237); assay: co-IP; immunoprecipitation from HEK293T cells co-expressing Nbea (WT or E2218R) with FLAG-SAP102, PFKM or PSD95; immunoblot; performed as in ref. 15
T1 sequence: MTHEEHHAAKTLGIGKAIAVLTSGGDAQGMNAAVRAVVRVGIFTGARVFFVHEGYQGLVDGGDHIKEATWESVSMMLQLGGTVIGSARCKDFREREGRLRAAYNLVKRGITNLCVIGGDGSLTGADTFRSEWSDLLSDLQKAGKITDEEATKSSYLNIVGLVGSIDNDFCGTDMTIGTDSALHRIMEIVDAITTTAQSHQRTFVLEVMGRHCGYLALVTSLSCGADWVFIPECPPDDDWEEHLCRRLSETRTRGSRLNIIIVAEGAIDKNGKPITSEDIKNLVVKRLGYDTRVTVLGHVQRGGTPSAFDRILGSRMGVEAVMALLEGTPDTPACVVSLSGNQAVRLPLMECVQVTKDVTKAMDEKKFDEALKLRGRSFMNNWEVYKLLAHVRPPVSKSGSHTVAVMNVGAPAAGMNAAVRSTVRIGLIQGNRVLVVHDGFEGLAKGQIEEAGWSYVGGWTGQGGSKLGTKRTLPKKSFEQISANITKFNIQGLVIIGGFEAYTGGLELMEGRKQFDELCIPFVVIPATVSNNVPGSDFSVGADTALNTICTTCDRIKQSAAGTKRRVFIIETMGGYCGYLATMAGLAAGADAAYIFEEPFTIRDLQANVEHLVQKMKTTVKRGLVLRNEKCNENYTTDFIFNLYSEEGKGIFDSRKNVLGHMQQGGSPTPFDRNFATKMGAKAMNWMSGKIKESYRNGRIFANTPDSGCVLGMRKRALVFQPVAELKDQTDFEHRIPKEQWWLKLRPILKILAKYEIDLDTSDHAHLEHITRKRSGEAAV

[2] = molecular target: T2, synapse-associated protein 102 (SAP102/Dlg3), FLAG-tagged (UniProt P70175); assay: as above
T2 sequence: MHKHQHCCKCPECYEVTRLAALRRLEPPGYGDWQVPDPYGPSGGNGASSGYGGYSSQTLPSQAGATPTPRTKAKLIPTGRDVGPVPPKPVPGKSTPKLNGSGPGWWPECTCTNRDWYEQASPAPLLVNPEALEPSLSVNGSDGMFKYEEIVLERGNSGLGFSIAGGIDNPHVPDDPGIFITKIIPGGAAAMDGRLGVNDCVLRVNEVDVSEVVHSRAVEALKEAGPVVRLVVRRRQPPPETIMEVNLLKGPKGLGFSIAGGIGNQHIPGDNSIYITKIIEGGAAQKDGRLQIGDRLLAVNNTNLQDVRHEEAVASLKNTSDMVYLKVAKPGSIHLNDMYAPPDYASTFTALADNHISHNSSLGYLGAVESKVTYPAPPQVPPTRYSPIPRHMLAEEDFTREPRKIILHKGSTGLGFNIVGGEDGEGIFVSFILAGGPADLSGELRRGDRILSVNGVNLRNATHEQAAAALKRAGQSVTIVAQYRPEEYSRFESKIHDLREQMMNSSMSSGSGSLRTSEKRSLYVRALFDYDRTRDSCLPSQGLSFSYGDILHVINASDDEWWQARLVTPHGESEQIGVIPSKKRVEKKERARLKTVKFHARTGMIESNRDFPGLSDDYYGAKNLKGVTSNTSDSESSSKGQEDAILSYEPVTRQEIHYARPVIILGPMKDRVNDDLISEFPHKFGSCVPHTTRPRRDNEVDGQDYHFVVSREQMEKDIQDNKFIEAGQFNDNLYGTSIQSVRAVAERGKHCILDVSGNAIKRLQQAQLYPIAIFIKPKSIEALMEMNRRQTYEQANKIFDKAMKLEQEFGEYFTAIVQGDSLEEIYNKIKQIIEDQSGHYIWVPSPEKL

binding [1] | binding [2] | Substance
binds | no binding | E2218R Nbea (full-length neurobeachin with the point mutation E2218R in the pleckstrin homology domain) (from UniProt Q9EPN1 1-2936)
binds | binds | Neurobeachin (Nbea), wild-type, full-length (from UniProt Q9EPN1 1-2936)
